The results in this text go back to paper doi:10.1101/2025.11.03.686312.

The target of the test is T1, ClC-5 I524K, stably expressed in RPTEC/TERT1 cells depleted of endogenous CLCN5 (human) (UniProt P51795).
T1 sequence: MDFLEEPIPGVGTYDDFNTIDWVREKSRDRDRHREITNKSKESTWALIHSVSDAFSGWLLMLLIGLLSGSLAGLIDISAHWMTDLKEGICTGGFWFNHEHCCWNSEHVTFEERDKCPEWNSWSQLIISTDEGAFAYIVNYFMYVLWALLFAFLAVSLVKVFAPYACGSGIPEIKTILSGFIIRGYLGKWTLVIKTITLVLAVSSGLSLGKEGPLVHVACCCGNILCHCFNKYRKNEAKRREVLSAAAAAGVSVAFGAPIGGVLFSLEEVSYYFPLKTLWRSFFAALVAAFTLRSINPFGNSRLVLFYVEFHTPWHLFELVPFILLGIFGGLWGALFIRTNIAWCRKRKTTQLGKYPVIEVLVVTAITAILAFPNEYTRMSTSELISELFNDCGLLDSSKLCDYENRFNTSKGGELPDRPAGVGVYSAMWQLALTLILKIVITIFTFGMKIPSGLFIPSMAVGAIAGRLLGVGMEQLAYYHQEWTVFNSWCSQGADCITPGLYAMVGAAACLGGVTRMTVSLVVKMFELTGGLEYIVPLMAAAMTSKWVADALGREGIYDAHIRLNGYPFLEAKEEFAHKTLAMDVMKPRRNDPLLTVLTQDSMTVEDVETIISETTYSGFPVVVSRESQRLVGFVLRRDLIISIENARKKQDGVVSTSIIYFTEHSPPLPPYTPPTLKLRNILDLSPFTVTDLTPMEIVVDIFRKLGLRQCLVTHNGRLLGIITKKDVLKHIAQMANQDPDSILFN
Put plainly: affinity purification with mass spectrometry.

Results are given in words; binding and its absence hold for the method and conditions named. Binding seen in cells or lysates may run through a third protein. These calls come from enrichment with a bait or labelling near it, and not all partners need be listed.

B1: ClC-5 I524K, stably expressed in RPTEC/TERT1 cells depleted of endogenous CLCN5 (protein, UniProt P51795-1 1-746)
chain: MDFLEEPIPGVGTYDDFNTIDWVREKSRDRDRHREITNKSKESTWALIHSVSDAFSGWLLMLLIGLLSGSLAGLIDISAHWMTDLKEGICTGGFWFNHEHCCWNSEHVTFEERDKCPEWNSWSQLIISTDEGAFAYIVNYFMYVLWALLFAFLAVSLVKVFAPYACGSGIPEIKTILSGFIIRGYLGKWTLVIKTITLVLAVSSGLSLGKEGPLVHVACCCGNILCHCFNKYRKNEAKRREVLSAAAAAGVSVAFGAPIGGVLFSLEEVSYYFPLKTLWRSFFAALVAAFTLRSINPFGNSRLVLFYVEFHTPWHLFELVPFILLGIFGGLWGALFIRTNIAWCRKRKTTQLGKYPVIEVLVVTAITAILAFPNEYTRMSTSELISELFNDCGLLDSSKLCDYENRFNTSKGGELPDRPAGVGVYSAMWQLALTLILKIVITIFTFGMKIPSGLFIPSMAVGAIAGRLLGVGMEQLAYYHQEWTVFNSWCSQGADCITPGLYAMVGAAACLGGVTRMTVSLVVKMFELTGGLEYIVPLMAAAMTSKWVADALGREGIYDAHIRLNGYPFLEAKEEFAHKTLAMDVMKPRRNDPLLTVLTQDSMTVEDVETIISETTYSGFPVVVSRESQRLVGFVLRRDLIISIENARKKQDGVVSTSIIYFTEHSPPLPPYTPPTLKLRNILDLSPFTVTDLTPMEIVVDIFRKLGLRQCLVTHNGRLLGIITKKDVLKHIAQMANQDPDSILFN
In the case of B1, the binding entry is “binds”.

B2: TCTN2, endogenous in RPTEC/TERT1 cells (protein, UniProt Q96GX1 26-697)
chain: DLAFIPPFIRMSGPAVSASLVGDTEGVTVSLAVLQDEAGILPIPTCGVLNNETEDWSVTVIPGAKVLEVTVRWKRGLDWCSSNETDSFSESPCILQTLLVSASHNSSCSAHLLIQVEIYANSSLTHNASENVTVIPNQVYQPLGPCPCNLTAGACDVRCCCDQECSSNLTTLFRRSCFTGVFGGDVNPPFDQLCSAGTTTRGVPDWFPFLCVQSPLANTPFLGYFYHGAVSPKQDSSFEVYVDTDAKDFADFGYKQGDPIMTVKKAYFTIPQVSLAGQCMQNAPVAFLHNFDVKCVTNLELYQERDGIINAKIKNVALGGIVTPKVIYEEATDLDKFITNTETPLNNGSTPRIVNVEEHYIFKWNNNTISEINVKIFRAEINAHQKGIMTQRFVVKFLSYNSGNEEELSGNPGYQLGKPVRALNINRMNNVTTLHLWQSAGRGLCTSATFKPILFGENVLSGCLLEVGINENCTQLRENAVERLDSLIQATHVAMRGNSDYADLSDGWLEIIRVDAPDPGADPLASSVNGMCLDIPAHLSIRILISDAGAVEGITQQEILGVETRFSSVNWQYQCGLTCEHKADLLPISASVQFIKIPAQLPHPLTRFQINYTEYDCNRNEVCWPQLLYPWTQYYQGELHSQCVAKGLLLLLFLTLALFLSNPWTRICKAYS
For the molecule B2, the binding result is listed as “binds”.
